Test results reported in publication PMC10294715.

Sequences of proteins named here, by UniProt entry; tags and fusion partners are left off.
UniProt D3Z6P9, entry or part of it E395Q: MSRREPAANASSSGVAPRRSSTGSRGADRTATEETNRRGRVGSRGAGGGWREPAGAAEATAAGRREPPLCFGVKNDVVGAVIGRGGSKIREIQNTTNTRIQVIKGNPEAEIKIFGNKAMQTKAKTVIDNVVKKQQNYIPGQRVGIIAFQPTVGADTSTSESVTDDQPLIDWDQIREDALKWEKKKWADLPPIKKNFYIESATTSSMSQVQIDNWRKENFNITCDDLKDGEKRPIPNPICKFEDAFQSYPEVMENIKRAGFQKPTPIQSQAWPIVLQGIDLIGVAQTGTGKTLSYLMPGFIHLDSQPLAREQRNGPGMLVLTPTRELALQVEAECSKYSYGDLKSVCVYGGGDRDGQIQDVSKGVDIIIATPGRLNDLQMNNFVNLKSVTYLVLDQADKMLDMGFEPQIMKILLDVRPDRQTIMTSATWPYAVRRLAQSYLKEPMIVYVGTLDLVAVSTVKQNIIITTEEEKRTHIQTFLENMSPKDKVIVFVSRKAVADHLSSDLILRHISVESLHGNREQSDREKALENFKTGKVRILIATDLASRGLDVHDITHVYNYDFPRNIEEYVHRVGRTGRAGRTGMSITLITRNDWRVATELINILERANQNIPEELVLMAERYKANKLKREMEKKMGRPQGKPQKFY

The sequences below were run against DDX43-KI E395Q (Mus musculus) (UniProt D3Z6P9) (assay: EMSA). Settings: EMSA: 10 nM biotin-RNA, 50 mM Tris-HCl pH 7.5, 100 mM KCl, 2.5% glycerol, 0.05% NP-40, 4 mM EDTA, 1 mM DTT, RiboLock 2 U, 37 C 30 min; 8% native TBE PAGE at …; recombinant protein; protein details: His tag (Ni-NTA, pET28a); label: 3' biotin.

Sequence	binding result
CGGCGGGAGGCGGGGGUGGCAGUGUCUGCGCGCACA [Elfn2 3' tailed RG4 sequence2]	binds
GGGGAGGGUCCGGGUGGGACCGGUGGUGUUUUUU [3' tailed RG4 sequence]	binds
CGGCGGAGGGGCGGGAGGGU [Elfn2 RG4 only sequence1]	binds
GGGGAGGGUCCGGGUGGGA [RG4 only sequence]	binds
CGGCGGGAGGCGGGGGUGGC [Elfn2 RG4 only sequence2]	binds
CGGCGGAGGGGCGGGAGGGUCUGCAGCGGAGAGAGG [Elfn2 3' tailed RG4 sequence1]	binds

For at least one entry, the source does not settle the construct or the ends of the probe. At least one verdict rests on a figure or table, not on a statement of the authors.
